# The other results are listed elsewhere or left out.
# Experiments:
# Experiment in all cases: glycan array binding signal (z-score within array); higher = stronger binding
# Settings in all cases: glycan notation: IUPAC condensed, linker removed
# [1] = molecular target: Man(a1-3)[Man(a1-6)]Man(a1-6)[Man(a1-2)Man(a1-3)]Man(b1-4)GlcNAc(b1-4)GlcNAc
# Outline: (§1)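 Glycan array data were curated from 3228 arrays in the Consortium for Functional Glycomics database and kept only where the protein sequence was available. Glycan names were converted to IUPAC-condensed notation, and columns mapping to the same glycan were averaged. The binding signal is a within-array Z-score, averaged across arrays of the same protein sequence at different concentrations or buffers and across linkers. Negative Z-scores can be read as non-binding.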
# [2] = molecular target: Man(a1-3)[Man(a1-6)]Man(a1-6)[Man(a1-3)]Man
# Outline: as §1
# [3] = molecular target: Man(a1-3)[Man(a1-6)]Man(a1-6)[Man(a1-3)]Man(b1-4)GlcNAc(b1-4)GlcNAc
# Outline: as §1
# [4] = molecular target: Man(a1-3)[Man(a1-6)]Man(b1-4)GlcNAc(b1-4)GlcNAc
# Outline: as §1
# Man(a1-6)Man = molecular target: Man(a1-6)Man
# Outline: as §1
# Man(b1-4)GlcNAc = molecular target: Man(b1-4)GlcNAc
# Outline: as §1
# Neu5Ac(a2-3)Gal = molecular target: Neu5Ac(a2-3)Gal
# Outline: as §1
# [5] = molecular target: Neu5Ac(a2-3)Gal(b1-3)GalNAc
# Outline: as §1
# [6] = molecular target: Neu5Ac(a2-3)Gal(b1-3)GalNAc(b1-3)Gal(a1-4)Gal(b1-4)Glc
# Outline: as §1
# [7] = molecular target: Neu5Ac(a2-3)Gal(b1-3)GalNAc(b1-3)Gal(b1-4)GlcNAc
# Outline: as §1
# [8] = molecular target: Neu5Ac(a2-3)Gal(b1-3)GalNAc(b1-4)[Neu5Ac(a2-3)]Gal(b1-4)Glc
# Outline: as §1
# [9] = molecular target: Neu5Ac(a2-3)Gal(b1-3)GalNAc6S
# Outline: as §1
# [10] = molecular target: Neu5Ac(a2-3)Gal(b1-3)GlcNAc
# Outline: as §1
# [11] = molecular target: Neu5Ac(a2-3)Gal(b1-3)GlcNAc(b1-3)Gal(b1-3)GlcNAc
# Outline: as §1
# [12] = molecular target: Neu5Ac(a2-3)Gal(b1-3)GlcNAc6S
# Outline: as §1
# [13] = molecular target: Neu5Ac(a2-3)Gal(b1-3)[Fuc(a1-4)]GlcNAc
# Outline: as §1
# [14] = molecular target: Neu5Ac(a2-3)Gal(b1-3)[Fuc(a1-4)]GlcNAc(b1-3)Gal(b1-4)[Fuc(a1-3)]GlcNAc
# Outline: as §1
# [15] = molecular target: Neu5Ac(a2-3)Gal(b1-3)[Neu5Ac(a2-3)Gal(b1-4)]GlcNAc
# Outline: as §1
# [16] = molecular target: Neu5Ac(a2-3)Gal(b1-3)[Neu5Ac(a2-6)]GalNAc
# Outline: as §1
# Neu5Ac(a2-3)Gal(b1-4)Glc = molecular target: Neu5Ac(a2-3)Gal(b1-4)Glc
# Outline: as §1
# [17] = molecular target: Neu5Ac(a2-3)Gal(b1-4)GlcNAc
# Outline: as §1
# [18] = molecular target: Neu5Ac(a2-3)Gal(b1-4)GlcNAc(b1-2)Man(a1-3)[GlcNAc(b1-2)Man(b1-4)GlcNAc(b1-2)Man(a1-6)]Man(b1-4)GlcNAc(b1-4)GlcNAc
# Outline: as §1
# [19] = molecular target: Neu5Ac(a2-3)Gal(b1-4)GlcNAc(b1-2)Man(a1-3)[Neu5Ac(a2-6)Gal(b1-4)GlcNAc(b1-2)Man(a1-6)]Man(b1-4)GlcNAc(b1-4)GlcNAc
# Outline: as §1
# [20] = molecular target: Neu5Ac(a2-3)Gal(b1-4)GlcNAc(b1-3)Gal(b1-3)GlcNAc
# Outline: as §1
# [21] = molecular target: Neu5Ac(a2-3)Gal(b1-4)GlcNAc(b1-3)Gal(b1-4)GlcNAc
# Outline: as §1
# [22] = molecular target: Neu5Ac(a2-3)Gal(b1-4)GlcNAc(b1-3)Gal(b1-4)GlcNAc(b1-3)Gal(b1-4)GlcNAc
# Outline: as §1
# [23] = molecular target: Neu5Ac(a2-3)Gal(b1-4)GlcNAc(b1-3)Gal(b1-4)[Fuc(a1-3)]GlcNAc
# Outline: as §1
# [24] = molecular target: Neu5Ac(a2-3)Gal(b1-4)GlcNAc(b1-6)[Gal(b1-3)]GalNAc
# Outline: as §1
# [25] = molecular target: Neu5Ac(a2-3)Gal(b1-4)GlcNAc(b1-6)[Neu5Ac(a2-3)Gal(b1-3)]GalNAc
# Outline: as §1
# [26] = molecular target: Neu5Ac(a2-3)Gal(b1-4)GlcNAc6S
# Outline: as §1
# [27] = molecular target: Neu5Ac(a2-3)Gal(b1-4)[Fuc(a1-3)]GlcNAc
# Outline: as §1
# [28] = molecular target: Neu5Ac(a2-3)Gal(b1-4)[Fuc(a1-3)]GlcNAc(b1-3)Gal
# Outline: as §1
# [29] = molecular target: Neu5Ac(a2-3)Gal(b1-4)[Fuc(a1-3)]GlcNAc(b1-3)Gal(b1-4)GlcNAc
# Outline: as §1
# [30] = molecular target: Neu5Ac(a2-3)Gal(b1-4)[Fuc(a1-3)]GlcNAc(b1-3)Gal(b1-4)[Fuc(a1-3)]GlcNAc(b1-3)Gal(b1-4)[Fuc(a1-3)]GlcNAc
# Outline: as §1
# [31] = molecular target: Neu5Ac(a2-3)Gal(b1-4)[Fuc(a1-3)]GlcNAc(b1-6)[Gal(b1-3)]GalNAc
# Outline: as §1
# [32] = molecular target: Neu5Ac(a2-3)Gal(b1-4)[Fuc(a1-3)]GlcNAc6S
# Outline: as §1
# [33] = molecular target: Neu5Ac(a2-3)Gal6S(b1-4)GlcNAc
# Outline: as §1
binder,measurement,setting,value
"Mcg Light Chain Dimer (Homo sapiens), Q6PIK1 (protein) MAGFPLLLTLLTHCAGSWGQSLLTQPPSVSGTPGQRVTISCSGSSSNIGINYVYWYQQIPGTAPKLLISTNDQRPSGVPDRFSGSKSGTSASLAIGGLRSEDEAHYYCAAWDDSMSGPGYAFGTGTKVTVLRQPKANPTVTLFPPSSEELQANKATLVCLISDFYPGAVTVAWKADGSPVKAGVETTKPSKQSNNKYAASSYLSLTPEQWKSHRSYSCQVTHEGSTVEKTVAPTECS",glycan array binding signal (z-score),[1],-0.61
same,glycan array binding signal (z-score),[2],-0.817
same,glycan array binding signal (z-score),[3],1.08
same,glycan array binding signal (z-score),[4],-0.305
same,glycan array binding signal (z-score),Man(a1-6)Man,0.122
same,glycan array binding signal (z-score),Man(b1-4)GlcNAc,-0.66
same,glycan array binding signal (z-score),Neu5Ac(a2-3)Gal,1.01
same,glycan array binding signal (z-score),[5],0.759
same,glycan array binding signal (z-score),[6],-0.867
same,glycan array binding signal (z-score),[7],0.829
same,glycan array binding signal (z-score),[8],1.43
same,glycan array binding signal (z-score),[9],2.88
same,glycan array binding signal (z-score),[10],-0.09
same,glycan array binding signal (z-score),[11],-0.889
same,glycan array binding signal (z-score),[12],1.73
same,glycan array binding signal (z-score),[13],-0.943
same,glycan array binding signal (z-score),[14],0.959
same,glycan array binding signal (z-score),[15],-0.936
same,glycan array binding signal (z-score),[16],-0.754
same,glycan array binding signal (z-score),Neu5Ac(a2-3)Gal(b1-4)Glc,0.297
same,glycan array binding signal (z-score),[17],0.272
same,glycan array binding signal (z-score),[18],1.13
same,glycan array binding signal (z-score),[19],-0.72
same,glycan array binding signal (z-score),[20],0.968
same,glycan array binding signal (z-score),[21],-0.627
same,glycan array binding signal (z-score),[22],1.93
same,glycan array binding signal (z-score),[23],-0.709
same,glycan array binding signal (z-score),[24],0.43
same,glycan array binding signal (z-score),[25],1.19
same,glycan array binding signal (z-score),[26],2.96
same,glycan array binding signal (z-score),[27],-0.14
same,glycan array binding signal (z-score),[28],-0.852
same,glycan array binding signal (z-score),[29],1.2
same,glycan array binding signal (z-score),[30],0.952
same,glycan array binding signal (z-score),[31],0.763
same,glycan array binding signal (z-score),[32],-0.146
same,glycan array binding signal (z-score),[33],1.83

# An excerpt of these results, bar-delimited:
binder | measurement | setting | value
Mcg Light Chain Dimer (Homo sapiens), Q6PIK1 (protein) MAGFPLLLTLLTHCAGSWGQSLLTQPPSVSGTPGQRVTISCSGSSSNIGINYVYWYQQIPGTAPKLLISTNDQRPSGVPDRFSGSKSGTSASLAIGGLRSEDEAHYYCAAWDDSMSGPGYAFGTGTKVTVLRQPKANPTVTLFPPSSEELQANKATLVCLISDFYPGAVTVAWKADGSPVKAGVETTKPSKQSNNKYAASSYLSLTPEQWKSHRSYSCQVTHEGSTVEKTVAPTECS | glycan array binding signal (z-score) | [17] | 0.272
same | glycan array binding signal (z-score) | [18] | 1.13
same | glycan array binding signal (z-score) | [19] | -0.72

# Reference: the supplement of paper PMC8728848
